These are yes or no findings as the source states them, for the method shown. Binding seen in cells or lysates may run through a third protein. These calls come from enrichment with a bait or labelling near it, and not all partners need be listed.
B1: TRIM41 (enzyme, UniProt Q8WV44 1-630)
chain: MAAVAMTPNPVQTLQEEAVCAICLDYFTDPVSIGCGHNFCRVCVTQLWGGEDEEDRDELDREEEEEDGEEEEVEAVGAGAGWDTPMRDEDYEGDMEEEVEEEEEGVFWTSGMSRSSWDNMDYVWEEEDEEEDLDYYLGDMEEEDLRGEDEEDEEEVLEEVEEEDLDPVTPLPPPPAPRRCFTCPQCRKSFPRRSFRPNLQLANMVQVIRQMHPTPGRGSRVTDQGICPKHQEALKLFCEVDEEAICVVCRESRSHKQHSVVPLEEVVQEYKAKLQGHVEPLRKHLEAVQKMKAKEERRVTELKSQMKSELAAVASEFGRLTRFLAEEQAGLERRLREMHEAQLGRAGAAASRLAEQAAQLSRLLAEAQERSQQGGLRLLQDIKETFNRCEEVQLQPPEVWSPDPCQPHSHDFLTDAIVRKMSRMFCQAARVDLTLDPDTAHPALMLSPDRRGVRLAERRQEVADHPKRFSADCCVLGAQGFRSGRHYWEVEVGGRRGWAVGAARESTHHKEKVGPGGSSVGSGDASSSRHHHRRRRLHLPQQPLLQREVWCVGTNGKRYQAQSSTEQTLLSPSEKPRRFGVYLDYEAGRLGFYNAETLAHVHTFSAAFLGERVFPFFRVLSKGTRIKLCP
B2: TRIM56 (enzyme, UniProt Q9BRZ2 1-755)
chain: MVSHGSSPSLLEALSSDFLACKICLEQLRAPKTLPCLHTYCQDCLAQLADGGRVRCPECRETVPVPPEGVASFKTNFFVNGLLDLVKARACGDLRAGKPACALCPLVGGTSTGGPATARCLDCADDLCQACADGHRCTRQTHTHRVVDLVGYRAGWYDEEARERQAAQCPQHPGEALRFLCQPCSQLLCRECRLDPHLDHPCLPLAEAVRARRPGLEGLLAGVDNNLVELEAARRVEKEALARLREQAARVGTQVEEAAEGVLRALLAQKQEVLGQLRAHVEAAEEAARERLAELEGREQVARAAAAFARRVLSLGREAEILSLEGAIAQRLRQLQGCPWAPGPAPCLLPQLELHPGLLDKNCHLLRLSFEEQQPQKDGGKDGAGTQGGEESQSRREDEPKTERQGGVQPQAGDGAQTPKEEKAQTTREEGAQTLEEDRAQTPHEDGGPQPHRGGRPNKKKKFKGRLKSISREPSPALGPNLDGSGLLPRPIFYCSFPTRMPGDKRSPRITGLCPFGPREILVADEQNRALKRFSLNGDYKGTVPVPEGCSPCSVAALQSAVAFSASARLYLINPNGEVQWRRALSLSQASHAVAALPSGDRVAVSVAGHVEVYNMEGSLATRFIPGGKASRGLRALVFLTTSPQGHFVGSDWQQNSVVICDGLGQVVGEYKGPGLHGCQPGSVSVDKKGYIFLTLREVNKVVILDPKGSLLGDFLTAYHGLEKPRVTTMVDGRYLVVSLSNGTIHIFRVRSPDS

Sequences of proteins named here, by UniProt entry; tags and fusion partners are left off.
UniProt Q86U44: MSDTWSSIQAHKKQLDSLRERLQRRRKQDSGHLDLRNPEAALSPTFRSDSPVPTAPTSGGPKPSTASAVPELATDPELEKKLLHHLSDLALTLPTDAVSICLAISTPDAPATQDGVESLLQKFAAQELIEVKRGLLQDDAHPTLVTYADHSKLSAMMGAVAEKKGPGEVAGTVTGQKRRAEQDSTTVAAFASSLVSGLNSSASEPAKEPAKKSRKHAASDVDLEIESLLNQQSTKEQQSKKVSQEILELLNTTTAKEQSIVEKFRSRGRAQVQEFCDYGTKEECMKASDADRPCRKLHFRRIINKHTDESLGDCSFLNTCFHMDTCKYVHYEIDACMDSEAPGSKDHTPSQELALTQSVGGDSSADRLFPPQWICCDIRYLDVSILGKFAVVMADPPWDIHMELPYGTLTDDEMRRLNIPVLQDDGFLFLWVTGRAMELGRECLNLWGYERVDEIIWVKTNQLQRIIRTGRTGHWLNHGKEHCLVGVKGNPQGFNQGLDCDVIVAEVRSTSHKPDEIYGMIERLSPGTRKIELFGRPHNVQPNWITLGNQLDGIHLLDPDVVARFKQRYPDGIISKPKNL
UniProt Q7Z6Z7: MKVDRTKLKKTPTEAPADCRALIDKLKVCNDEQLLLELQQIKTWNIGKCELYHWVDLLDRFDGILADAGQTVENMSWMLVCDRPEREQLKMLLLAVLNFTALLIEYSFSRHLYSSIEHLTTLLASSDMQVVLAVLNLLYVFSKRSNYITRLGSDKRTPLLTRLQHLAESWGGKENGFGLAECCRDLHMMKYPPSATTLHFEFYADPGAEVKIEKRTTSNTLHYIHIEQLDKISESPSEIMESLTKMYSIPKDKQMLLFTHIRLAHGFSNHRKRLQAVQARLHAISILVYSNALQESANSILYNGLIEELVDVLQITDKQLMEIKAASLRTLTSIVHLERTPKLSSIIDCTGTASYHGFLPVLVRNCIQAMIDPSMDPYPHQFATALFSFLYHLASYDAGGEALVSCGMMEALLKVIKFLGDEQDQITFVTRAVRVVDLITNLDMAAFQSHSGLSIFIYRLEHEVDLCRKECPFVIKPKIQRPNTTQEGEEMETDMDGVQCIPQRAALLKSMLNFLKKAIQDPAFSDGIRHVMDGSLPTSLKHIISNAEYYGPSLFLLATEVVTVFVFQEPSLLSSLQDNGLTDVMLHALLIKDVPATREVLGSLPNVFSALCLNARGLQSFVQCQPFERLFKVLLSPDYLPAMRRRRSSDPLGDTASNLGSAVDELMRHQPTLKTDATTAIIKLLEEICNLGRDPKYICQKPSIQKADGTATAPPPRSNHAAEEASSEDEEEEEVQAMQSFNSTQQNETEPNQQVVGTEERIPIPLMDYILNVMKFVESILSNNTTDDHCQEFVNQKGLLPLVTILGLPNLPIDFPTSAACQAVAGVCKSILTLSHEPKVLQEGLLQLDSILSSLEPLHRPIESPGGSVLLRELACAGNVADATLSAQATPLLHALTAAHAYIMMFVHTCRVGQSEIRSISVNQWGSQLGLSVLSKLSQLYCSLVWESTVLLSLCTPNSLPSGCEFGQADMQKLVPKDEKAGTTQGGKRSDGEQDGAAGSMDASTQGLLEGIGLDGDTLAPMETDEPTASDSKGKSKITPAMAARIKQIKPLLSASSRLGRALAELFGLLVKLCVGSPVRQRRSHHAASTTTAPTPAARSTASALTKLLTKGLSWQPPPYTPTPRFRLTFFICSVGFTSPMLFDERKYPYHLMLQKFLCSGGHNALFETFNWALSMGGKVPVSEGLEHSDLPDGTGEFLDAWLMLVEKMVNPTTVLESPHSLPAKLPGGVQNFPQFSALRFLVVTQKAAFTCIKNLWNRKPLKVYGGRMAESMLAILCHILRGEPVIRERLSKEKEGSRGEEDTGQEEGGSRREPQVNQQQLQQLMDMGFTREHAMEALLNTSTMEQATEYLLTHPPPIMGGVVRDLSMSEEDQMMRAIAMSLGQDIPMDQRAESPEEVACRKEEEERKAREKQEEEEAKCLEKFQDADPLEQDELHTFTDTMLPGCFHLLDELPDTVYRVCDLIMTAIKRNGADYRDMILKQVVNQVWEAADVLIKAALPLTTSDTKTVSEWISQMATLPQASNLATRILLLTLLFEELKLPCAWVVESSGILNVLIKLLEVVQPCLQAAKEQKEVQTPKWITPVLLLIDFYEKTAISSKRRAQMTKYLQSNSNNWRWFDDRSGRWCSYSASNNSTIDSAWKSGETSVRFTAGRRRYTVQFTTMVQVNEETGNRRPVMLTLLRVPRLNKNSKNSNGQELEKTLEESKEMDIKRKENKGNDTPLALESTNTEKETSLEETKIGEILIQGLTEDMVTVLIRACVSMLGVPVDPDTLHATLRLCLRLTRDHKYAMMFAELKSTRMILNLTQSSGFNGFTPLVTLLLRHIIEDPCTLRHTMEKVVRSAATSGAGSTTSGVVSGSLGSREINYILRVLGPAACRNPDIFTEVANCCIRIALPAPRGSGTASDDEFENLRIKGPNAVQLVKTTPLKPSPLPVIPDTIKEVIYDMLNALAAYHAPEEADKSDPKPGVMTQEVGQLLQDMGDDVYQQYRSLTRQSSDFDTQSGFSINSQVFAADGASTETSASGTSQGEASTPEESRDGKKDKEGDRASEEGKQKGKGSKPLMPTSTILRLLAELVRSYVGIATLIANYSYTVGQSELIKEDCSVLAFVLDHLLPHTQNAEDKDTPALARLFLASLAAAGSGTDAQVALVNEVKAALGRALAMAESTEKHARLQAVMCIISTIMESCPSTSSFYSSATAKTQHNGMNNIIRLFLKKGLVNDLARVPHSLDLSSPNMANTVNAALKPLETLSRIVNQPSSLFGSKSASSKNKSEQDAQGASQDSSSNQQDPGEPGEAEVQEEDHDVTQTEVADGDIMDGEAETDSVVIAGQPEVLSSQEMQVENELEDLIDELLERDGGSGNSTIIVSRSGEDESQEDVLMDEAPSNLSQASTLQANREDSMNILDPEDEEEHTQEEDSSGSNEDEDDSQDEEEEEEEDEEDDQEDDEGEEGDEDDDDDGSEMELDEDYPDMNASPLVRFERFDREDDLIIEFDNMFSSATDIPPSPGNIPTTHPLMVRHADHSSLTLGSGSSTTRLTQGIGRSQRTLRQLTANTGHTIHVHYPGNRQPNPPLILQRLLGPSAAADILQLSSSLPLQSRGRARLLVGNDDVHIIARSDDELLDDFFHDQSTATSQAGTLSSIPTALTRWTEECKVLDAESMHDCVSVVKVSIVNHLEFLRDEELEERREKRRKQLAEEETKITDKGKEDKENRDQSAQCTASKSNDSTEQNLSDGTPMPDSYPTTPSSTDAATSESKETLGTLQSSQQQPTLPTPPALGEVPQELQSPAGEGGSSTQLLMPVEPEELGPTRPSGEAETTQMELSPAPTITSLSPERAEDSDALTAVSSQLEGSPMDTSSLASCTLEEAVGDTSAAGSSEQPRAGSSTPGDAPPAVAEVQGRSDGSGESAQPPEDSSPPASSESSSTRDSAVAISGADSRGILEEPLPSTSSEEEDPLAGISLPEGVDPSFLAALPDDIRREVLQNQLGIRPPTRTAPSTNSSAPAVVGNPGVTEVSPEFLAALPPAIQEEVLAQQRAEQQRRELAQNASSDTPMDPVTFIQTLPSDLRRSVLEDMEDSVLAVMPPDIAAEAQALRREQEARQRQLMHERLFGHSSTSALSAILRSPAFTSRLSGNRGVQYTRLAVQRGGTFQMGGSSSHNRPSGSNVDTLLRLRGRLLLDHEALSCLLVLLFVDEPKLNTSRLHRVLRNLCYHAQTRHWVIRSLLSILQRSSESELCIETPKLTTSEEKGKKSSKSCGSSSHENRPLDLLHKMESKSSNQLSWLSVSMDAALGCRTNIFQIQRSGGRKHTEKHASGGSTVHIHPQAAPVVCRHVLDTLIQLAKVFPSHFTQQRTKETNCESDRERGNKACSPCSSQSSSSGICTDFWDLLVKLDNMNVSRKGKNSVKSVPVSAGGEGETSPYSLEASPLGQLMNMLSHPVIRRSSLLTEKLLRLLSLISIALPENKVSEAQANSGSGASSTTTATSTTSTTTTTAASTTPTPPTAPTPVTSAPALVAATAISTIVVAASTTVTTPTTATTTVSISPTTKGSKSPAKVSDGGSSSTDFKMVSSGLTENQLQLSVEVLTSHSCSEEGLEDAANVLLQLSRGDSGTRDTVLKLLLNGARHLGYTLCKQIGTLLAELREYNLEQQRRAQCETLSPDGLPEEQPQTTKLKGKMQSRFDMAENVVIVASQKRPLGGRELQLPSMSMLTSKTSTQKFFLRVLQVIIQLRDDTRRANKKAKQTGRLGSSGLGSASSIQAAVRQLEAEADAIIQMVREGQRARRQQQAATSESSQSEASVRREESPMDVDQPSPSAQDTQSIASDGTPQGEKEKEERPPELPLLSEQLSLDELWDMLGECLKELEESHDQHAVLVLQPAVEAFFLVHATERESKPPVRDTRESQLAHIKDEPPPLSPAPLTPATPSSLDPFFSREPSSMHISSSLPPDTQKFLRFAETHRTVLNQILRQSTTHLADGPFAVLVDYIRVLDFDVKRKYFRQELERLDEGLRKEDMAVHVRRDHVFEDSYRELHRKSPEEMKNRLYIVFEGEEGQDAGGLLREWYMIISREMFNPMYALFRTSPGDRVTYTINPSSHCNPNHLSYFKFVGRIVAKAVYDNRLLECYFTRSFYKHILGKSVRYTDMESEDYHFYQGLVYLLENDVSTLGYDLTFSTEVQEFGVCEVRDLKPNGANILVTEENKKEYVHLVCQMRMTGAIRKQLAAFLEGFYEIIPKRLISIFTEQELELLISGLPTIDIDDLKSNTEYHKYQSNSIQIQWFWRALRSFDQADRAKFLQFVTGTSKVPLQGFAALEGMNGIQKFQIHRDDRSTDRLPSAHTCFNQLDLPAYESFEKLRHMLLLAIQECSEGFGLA
UniProt O15541: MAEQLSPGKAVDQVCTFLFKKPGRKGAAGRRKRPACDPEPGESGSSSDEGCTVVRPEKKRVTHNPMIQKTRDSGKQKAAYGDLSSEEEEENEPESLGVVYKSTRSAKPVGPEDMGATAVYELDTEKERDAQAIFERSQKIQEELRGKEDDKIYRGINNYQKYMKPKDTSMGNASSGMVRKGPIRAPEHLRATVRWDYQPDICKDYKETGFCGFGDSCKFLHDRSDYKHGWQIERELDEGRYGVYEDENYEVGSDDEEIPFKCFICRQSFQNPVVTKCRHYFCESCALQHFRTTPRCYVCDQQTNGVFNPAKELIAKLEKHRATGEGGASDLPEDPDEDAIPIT
UniProt Q9UPN9: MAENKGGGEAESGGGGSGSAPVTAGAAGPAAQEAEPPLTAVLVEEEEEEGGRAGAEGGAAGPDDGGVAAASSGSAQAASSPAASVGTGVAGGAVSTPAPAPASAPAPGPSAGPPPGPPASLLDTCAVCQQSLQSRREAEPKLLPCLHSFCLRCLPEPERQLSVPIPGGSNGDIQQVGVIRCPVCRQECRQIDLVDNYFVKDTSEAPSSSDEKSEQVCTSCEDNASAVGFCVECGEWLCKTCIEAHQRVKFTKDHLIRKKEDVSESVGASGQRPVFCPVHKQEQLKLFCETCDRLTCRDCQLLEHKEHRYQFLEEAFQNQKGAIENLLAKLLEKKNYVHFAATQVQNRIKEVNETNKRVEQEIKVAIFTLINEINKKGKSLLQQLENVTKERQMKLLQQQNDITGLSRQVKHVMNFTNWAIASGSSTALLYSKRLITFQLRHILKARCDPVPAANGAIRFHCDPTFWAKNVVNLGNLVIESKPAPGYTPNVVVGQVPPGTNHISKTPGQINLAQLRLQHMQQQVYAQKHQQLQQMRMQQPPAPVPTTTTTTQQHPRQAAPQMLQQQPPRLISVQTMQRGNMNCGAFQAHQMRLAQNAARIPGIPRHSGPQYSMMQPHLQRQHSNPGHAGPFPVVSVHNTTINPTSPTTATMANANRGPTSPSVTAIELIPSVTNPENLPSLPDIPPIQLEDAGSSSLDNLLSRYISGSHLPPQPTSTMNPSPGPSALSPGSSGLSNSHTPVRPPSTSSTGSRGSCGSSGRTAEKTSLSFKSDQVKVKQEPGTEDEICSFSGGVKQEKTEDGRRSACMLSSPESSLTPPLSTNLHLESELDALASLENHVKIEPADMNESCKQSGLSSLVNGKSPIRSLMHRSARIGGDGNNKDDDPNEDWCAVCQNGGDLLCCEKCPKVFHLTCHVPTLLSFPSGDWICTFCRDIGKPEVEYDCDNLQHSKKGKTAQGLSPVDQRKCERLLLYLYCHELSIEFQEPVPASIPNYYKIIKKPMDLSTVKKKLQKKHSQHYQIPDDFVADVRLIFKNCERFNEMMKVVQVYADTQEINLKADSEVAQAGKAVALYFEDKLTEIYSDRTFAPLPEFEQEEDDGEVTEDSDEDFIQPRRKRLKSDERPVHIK

These molecules were tested against Flag-METTL3 (UniProt Q86U44) (assay: affinity purification with mass spectrometry; Flag-METTL3 expressed in AML cells; METTL3-immunoprecipitated complexes analysed by mass spectrometry).

Row | binding | Molecule
1 | binds | HERC2 (from UniProt O95714 1-4834) (enzyme)
2 | binds | HUWE1 (from UniProt Q7Z6Z7 1-4374) (enzyme)
3 | binds | MYCBP2 (from UniProt O75592 1-4678) (enzyme)
4 | binds | RNF113A (from UniProt O15541 1-343) (enzyme)
5 | binds | TRIM21 (from UniProt P19474 1-475) (enzyme)
6 | binds | TRIM33 (from UniProt Q9UPN9 1-1127) (enzyme)
7 | binds | UBR5 (from UniProt O95071 1-2799) (enzyme)
8 | binds | B1
9 | binds | B2

— PMC10243067
